Experimental data published in patent publication US20120101086A1, “THIADIAZOLE DERIVATIVES AND THEIR USE FOR THE TREATMENT OF DISORDERS MEDIATED BY S1P1 RECEPTORS” (GLAXO GROUP LIMITED, priority 2009, published 2012).
Some entries share one result that the patent states for a list of compounds.

By UniProt entry, the sequences of proteins in these tests, tags left out.
UniProt Q99500, whole entry, species assumed: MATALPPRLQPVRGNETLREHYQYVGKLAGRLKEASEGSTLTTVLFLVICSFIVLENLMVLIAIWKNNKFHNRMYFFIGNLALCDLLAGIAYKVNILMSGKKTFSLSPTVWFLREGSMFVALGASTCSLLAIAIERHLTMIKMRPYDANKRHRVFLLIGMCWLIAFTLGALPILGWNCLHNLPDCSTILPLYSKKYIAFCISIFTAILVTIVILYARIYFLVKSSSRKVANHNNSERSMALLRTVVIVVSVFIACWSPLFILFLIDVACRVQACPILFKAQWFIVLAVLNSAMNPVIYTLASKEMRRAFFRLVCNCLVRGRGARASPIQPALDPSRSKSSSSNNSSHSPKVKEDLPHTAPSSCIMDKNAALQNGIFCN
UniProt P21453, whole entry: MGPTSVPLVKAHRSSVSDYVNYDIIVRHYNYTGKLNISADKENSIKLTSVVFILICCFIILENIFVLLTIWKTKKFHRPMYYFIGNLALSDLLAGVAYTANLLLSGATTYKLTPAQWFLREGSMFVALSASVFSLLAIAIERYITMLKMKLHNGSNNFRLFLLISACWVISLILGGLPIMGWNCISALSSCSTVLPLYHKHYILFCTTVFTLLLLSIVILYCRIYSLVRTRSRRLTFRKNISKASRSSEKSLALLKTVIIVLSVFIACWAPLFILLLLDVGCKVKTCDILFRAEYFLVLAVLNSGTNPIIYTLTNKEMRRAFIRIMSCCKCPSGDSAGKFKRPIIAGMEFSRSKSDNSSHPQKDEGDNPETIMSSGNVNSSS

What was measured:
[1] = target: T1, S1P3 (Homo sapiens, UniProt Q99500); assay: S1P3 GTPγS assay; format: biochemical; conditions: tested in one of the above S1P3 assays (incl. purified membrane protocol)
T1 construct: expressed in transfected cells; host or cells: RBL cells (membranes, crude or sucrose-gradient purified)

[2] = target: S1P1 (Homo sapiens, UniProt P21453); assay: S1P-1 β-Arrestin recruitment assay; format: cell-based; set-up: host or cells: PathHunter CHO-K1 EDG1 β-Arrestin cell line; conditions: PathHunter CHO-K1 EDG1 β-Arrestin cell line, chemi-luminescence
Protocol: β-Arrestin recruitment assays were carried out using the PathHunter CHO-K1 EDG1 β-Arrestin cell line (DiscoveRx Corporation) in a chemi-luminescence detection assay. This cell line stably expresses β-Arrestin 2 and S1P1 fused to complementing portions of β-galactosidase (‘EA’ and ‘pro-link’, respectively) which associate upon Arrestin recruitment to form functional β-galactosidase enzyme.
Cells were grown to 80% confluency in Growth Medium (F12 nutrient HAMS supplemented with 10% heat-inactivated USA FBS, 1% L-glutamax, 800 m/ml Geneticin and 300 m/ml Hygromycin). Cells were harvested from the flask using Enzyme Free Cell Dissociation Buffer (Gibco) and washed from flasks with Optimem solution (Gibco). Cells were then centrifuged at 1000 rpm for 2-3 min and resuspended in Assay Buffer (Prepared from Sigma kit H1387 supplemented with 20 ml/L HEPES, 4.7 ml/L NaHCO3, 0.1% pluronic acid F-68 solution, 0.1% BSA and adjusted to pH 7.4 using sodium hydroxide at 1×10^6 cells/ml. Cells were dispensed into assay plates containing compounds (100n1/well of a solution of test compound in 100% DMSO) at 1×10^4 cells/well and incubated at 37° C./5% CO2 for 90 min followed by 15 min at room temperature. 5 μl detection mix (1 part Galacton Star, 5 parts Emerald II, 19 parts Assay Buffer; DiscoveRx) were added per well and the plates incubated at room temperature for 60 min. Luminescence was quantified using a Viewlux plate reader.

SMILES | pDC50 [1] | pEC50 [1] | pEC50 [2]
Cc1c2c(nn1-c1nnc(-c3ccc(OC(C)C)c(C#N)c3)s1)CCN(CC(=O)NC(CO)CO)C2 [Example 18, 2-[2-(5-{3-cyano-4-[(1-methylethyl)oxy]phenyl}-1,3,4-thiadiazol-2-yl)-3-methyl-2,4,6,7-tetrahydro-5H-pyrazolo[4,3-c]pyridin-5-yl]-N-[2-hydroxy-1-(hydroxymethyl)ethyl]acetamide] | < 5 | < 6 | ≥ 6
Cc1c2c(nn1-c1nnc(-c3ccc(OC(C)C)c(C#N)c3)s1)CCN(CC(=O)N[C@@H](C)CO)C2 [Example 19, 2-[2-(5-{3-cyano-4-[(1-methylethyl)oxy]phenyl}-1,3,4-thiadiazol-2-yl)-3-methyl-2,4,6,7-tetrahydro-5H-pyrazolo[4,3-c]pyridin-5-yl]-N-[(1S)-2-hydroxy-1-methylethyl]acetamide] | < 5 | < 6 | ≥ 6
Cc1c2c(nn1-c1nnc(-c3ccc(OC(C)C)c(C#N)c3)s1)CCN(CC(=O)N[C@H](C)CO)C2 [Example 20, 2-[2-(5-{3-cyano-4-[(1-methylethyl)oxy]phenyl}-1,3,4-thiadiazol-2-yl)-3-methyl-2,4,6,7-tetrahydro-5H-pyrazolo[4,3-c]pyridin-5-yl]-N-[(1R)-2-hydroxy-1-methylethyl]acetamide] | < 5 | < 6 | ≥ 6
Cc1c2c(nn1-c1nnc(-c3ccc(OC(C)C)c(C#N)c3)s1)CCN(CC(=O)NCCO)C2 [Example 21, 2-[2-(5-{3-cyano-4-[(1-methylethyl)oxy]phenyl}-1,3,4-thiadiazol-2-yl)-3-methyl-2,4,6,7-tetrahydro-5H-pyrazolo[4,3-c]pyridin-5-yl]-N-(2-hydroxyethyl)acetamide] | < 5 | < 6 | ≥ 6
Cc1c2c(nn1-c1nnc(-c3ccc(OC(C)C)c(C#N)c3)s1)CCN(CC(=O)NC[C@H](C)O)C2 [Example 22, 2-[2-(5-{3-cyano-4-[(1-methylethyl)oxy]phenyl}-1,3,4-thiadiazol-2-yl)-3-methyl-2,4,6,7-tetrahydro-5H-pyrazolo[4,3-c]pyridin-5-yl]-N-[(2S)-2-hydroxypropyl]acetamide] | < 5 | < 6 | ≥ 6
Cc1c2c(nn1-c1nnc(-c3ccc(OC(C)C)c(C#N)c3)s1)CCN(CC(=O)NC[C@@H](C)O)C2 [Example 23, 2-[2-(5-{3-cyano-4-[(1-methylethyl)oxy]phenyl}-1,3,4-thiadiazol-2-yl)-3-methyl-2,4,6,7-tetrahydro-5H-pyrazolo[4,3-c]pyridin-5-yl]-N-[(2R)-2-hydroxypropyl]acetamide] | < 5 | < 6 | ≥ 6
Cc1c2c(nn1-c1nnc(-c3ccc(OC(C)C)c(C#N)c3)s1)CCN(CCCO)C2 [Example 28, 5-{5-[5-(3-hydroxypropyl)-3-methyl-4,5,6,7-tetrahydro-2H-pyrazolo[4,3-c]pyridin-2-yl]-1,3,4-thiadiazol-2-yl}-2-[(1-methylethyl)oxy]benzonitrile] | < 5 | < 6 | ≥ 6
Cc1c2c(nn1-c1nnc(-c3ccc(OC(C)C)c(C#N)c3)s1)CCN(C(=O)CN)C2 [Example 29, 5-[5-(5-glycyl-3-methyl-4,5,6,7-tetrahydro-2H-pyrazolo[4,3-c]pyridin-2-yl)-1,3,4-thiadiazol-2-yl]-2-[(1-methylethyl)oxy]benzonitrile] | < 5 | < 6 | ≥ 6
Cc1c2c(nn1-c1nnc(-c3ccc(OC(C)C)c(C#N)c3)s1)CCN(C(=O)CN[C@H](C)CO)C2 [Example 30, 5-[5-(5-{N—[(1R)-2-hydroxy-1-methylethyl]glycyl}-3-methyl-4,5,6,7-tetrahydro-2H-pyrazolo[4,3-c]pyridin-2-yl)-1,3,4-thiadiazol-2-yl]-2-[(1-methylethyl)oxy]benzonitrile] | < 5 | < 6 | ≥ 6
Cc1c2c(nn1-c1nnc(-c3ccc(OC(C)C)c(C#N)c3)s1)CCN(C(=O)CNC[C@H](C)O)C2 [Example 33, 5-[5-(5-{N-[(2S)-2-hydroxypropyl]glycyl}-3-methyl-4,5,6,7-tetrahydro-2H-pyrazolo[4,3-c]pyridin-2-yl)-1,3,4-thiadiazol-2-yl]-2-[(1-methylethyl)oxy]benzonitrile] | < 5 | < 6 | ≥ 6
Cc1c2c(nn1-c1nnc(-c3ccc(OC(C)C)c(C#N)c3)s1)CCN(C(=O)CNC[C@H](O)CO)C2 [Example 34, 5-[5-(5-{N-[(2S)-2,3-dihydroxypropyl]glycyl}-3-methyl-4,5,6,7-tetrahydro-2H-pyrazolo[4,3-c]pyridin-2-yl)-1,3,4-thiadiazol-2-yl]-2-[(1-methylethyl)oxy]benzonitrile] | < 5 | < 6 | ≥ 6
Cc1c2c(nn1-c1nnc(-c3ccc(OC(C)C)c(C#N)c3)s1)CCN(C(=O)CNCCO)C2 [Example 35, 5-(5-{5-[N-(2-hydroxyethyl)glycyl]-3-methyl-4,5,6,7-tetrahydro-2H-pyrazolo[4,3-c]pyridin-2-yl}-1,3,4-thiadiazol-2-yl)-2-[(1-methylethyl)oxy]benzonitrile] | < 5 | < 6 | ≥ 6
Cc1c2c(nn1-c1nnc(-c3ccc(OC(C)C)c(C#N)c3)s1)CCN(C(=O)CNC(CO)CO)C2 [Example 36, 5-[5-(5-{N-[2-hydroxy-1-(hydroxymethyl)ethyl]glycyl}-3-methyl-4,5,6,7-tetrahydro-2H-pyrazolo[4,3-c]pyridin-2-yl)-1,3,4-thiadiazol-2-yl]-2-[(1-methylethyl)oxy]benzonitrile] | < 5 | < 6 | ≥ 6
Cc1c2c(nn1-c1nnc(-c3ccc(OC(C)C)c(C#N)c3)s1)CCN(C(=O)CNC[C@@H](O)CO)C2 [Example 37, 5-[5-(5-{N-[(2R)-2,3-dihydroxypropyl]glycyl}-3-methyl-4,5,6,7-tetrahydro-2H-pyrazolo[4,3-c]pyridin-2-yl)-1,3,4-thiadiazol-2-yl]-2-[(1-methylethyl)oxy]benzonitrile] | < 5 | < 6 | ≥ 6
Cc1c2c(nn1-c1nnc(-c3ccc(OC(C)C)c(C#N)c3)s1)CCN(CC(=O)O)C2 [Example 38, [2-(5-{3-cyano-4-[(1-methylethyl)oxy]phenyl}-1,3,4-thiadiazol-2-yl)-3-methyl-2,4,6,7-tetrahydro-5H-pyrazolo[4,3-c]pyridin-5-yl]acetic acid] | < 5 | < 6 | ≥ 6
Cc1c2c(nn1-c1nnc(-c3ccc(OC(C)C)c(Cl)c3)s1)CCN(C[C@@H](O)CO)C2.O=CO [Example 40, (2R)-3-[2-(5-{3-chloro-4-[(1-methylethyl)oxy]phenyl}-1,3,4-thiadiazol-2-yl)-3-methyl-2,4,6,7-tetrahydro-5H-pyrazolo[4,3-c]pyridin-5-yl]-1,2-propanediol formic acid salt] | < 5 | < 6 | ≥ 6
